Measurements from patent US20110091386A1 (GENE TECHNO SCIENCE, published 2011).

Target: murine laminin (murine)
Experiment: ELISA, protein coated at 5 ug/ml

binding: no binding
B1: mouse anti-RGD monoclonal antibody 35B6 (FERM BP-10441) (antibody, mouse IgG1, V domains shown)
VH: QVQLQQPGTELVKPGASVKLSCKASGYTFTNYWMHWVKQRPGQGLEWIGNINPRNGDSNYNEKFRSKASLTVDKSSSTVYMQLSSLTSEDSAVYYCARGYFDVWGTGTTVTVSS
VL: DIKMTQSPSSMYASLGERVSITCKASQDINSYLSWFQQKSGKSPKTLIYRANRLVDGVPSRFSGSGSGQDFSLTISSLEYEDMGIYYCLQYDEFPFTFGSGTKLEIK
notes: Mouse IgG1 from hybridoma

These are yes or no findings as the source states them, for the method shown.
